Earlier results, collected in patent publication US20110262477A1 (priority 2008, published 2011).

Settings: imported rapidly by blood cells (Thiel et al., 2003); cited from earlier work

Nc1ncnc2c1ncn2[C@@H]1O[C@H](CO)[C@@H](O)[C@H]1O [adenosine]
half life of extracellular adenosine: < 1 min
